Data as given in PubChem BioAssay AID1159578 (Peter MacCallum Cancer Centre, 2015).
Here is an unselected part of about 18,000 reagents. About 1,030 of them (5.7%) count as active. 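Inactive calls also include pools with fewer than 3300 nuclei, whose migration was not assessed.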 The raw values are shown without normalisation. A number with no mark means an inactive call. Further read-outs or replicates are left out here.

Test: 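siRNA pools altering how lymphatic endothelial cells close a scratch wound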 (primary screen)
Cell system: human lymphatic endothelial cells
Reagent: siRNA pool against human genes, 40 nM
Time to read-out: 48 h after transfection
Read-out: 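Cells stained with dye and imaged after a scratch; covered wound area and nuclei counted, duplicates averaged, migration set against mock wells and turned into a robust z-score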
Direction: migration robust z-score: higher = faster migration into the scratch; nuclei per well: higher = more cells in the well
Active means: 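Pools averaging fewer than 3300 nuclei are never called; remaining pools count as changed when migration robust z lies outside -2 to 2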
Meaning of the calls: active = migration changed; inactive = no migration change, or too few cells

gene | migration robust z-score | nuclei per well, duplicate mean
ORC2 (origin recognition complex subunit 2) | 0.55 | 5434
RPL10A (ribosomal protein L10a) | -1.37 | 3628
CAPNS2 (calpain small subunit 2) | -0.05 | 4614
CLRN3 (clarin 3) | 2.23 (active) | 6188
DALRD3 (DALR anticodon binding domain containing 3) | -1.1 | 6108
P2RX6 (purinergic receptor P2X 6) | 1.17 | 4220
CD9 (CD9 molecule) | 0.15 | 5677
G6PC3 (glucose-6-phosphatase catalytic subunit 3) | -1.25 | 5416
ZFAND3 (zinc finger AN1-type containing 3) | -0.62 | 4254
PSMB10 (proteasome 20S subunit beta 10) | -0.08 | 5400
ATP13A2 (ATPase cation transporting 13A2) | 0.49 | 6815
MYBPH (myosin binding protein H) | -1.84 | 4266
COMMD3 (COMM domain containing 3) | -0.36 | 3628
DHX37 (DEAH-box helicase 37) | 2.03 (active) | 5496
MBD1 (methyl-CpG binding domain protein 1) | -1.55 | 5666
GPHA2 (glycoprotein hormone subunit alpha 2) | 0.54 | 6542
CFAP45 (cilia and flagella associated protein 45) | -1.36 | 4402
COX7B2 (cytochrome c oxidase subunit 7B2) | 0.84 | 5184
PLA1A (phospholipase A1 member A) | -1.66 | 5032
MMP11 (matrix metallopeptidase 11) | -0.57 | 5484
ST20-AS1 (ST20 antisense RNA 1) | -0.14 | 6286
PUS3 (pseudouridine synthase 3) | 1.58 | 6176
CISD2 (CDGSH iron sulfur domain 2) | -1.05 | 4896
KCNAB3 | 0 | 5718
ID1 (inhibitor of DNA binding 1) | -0.88 | 5556
TUBB3 (tubulin beta 3 class III) | 0.48 | 6413
SLC26A6 | -0.4 | 5491
ETHE1 (ETHE1 persulfide dioxygenase) | 0.11 | 5682
ATP6AP2 (ATPase H+ transporting accessory protein 2) | -0.99 | 5229
DEFB105B (defensin beta 105B) | -0.48 | 5958
UTP11 (UTP11 small subunit processome component) | -0.66 | 5978
WFDC2 (WAP four-disulfide core domain 2) | -0.01 | 8004
KCNK13 (potassium two pore domain channel subfamily K member 13) | -0.8 | 4839
MNX1 (motor neuron and pancreas homeobox 1) | -0.34 | 4959
VCPIP1 (valosin containing protein interacting protein 1) | -0.98 | 5558

Records listed so far with an active call, once more:
gene | migration robust z-score | nuclei per well, duplicate mean
CLRN3 (clarin 3) | 2.23 (active) | 6188
DHX37 (DEAH-box helicase 37) | 2.03 (active) | 5496

Further records follow:
gene | migration robust z-score | nuclei per well, duplicate mean
STK38 (serine/threonine kinase 38) | -2.67 (active) | 4942
MCOLN3 (mucolipin TRP cation channel 3) | -1.12 | 4443
KLK10 (kallikrein related peptidase 10) | -0.96 | 5933
SLIRP-OT1 (SLIRP overlapping transcript 1) | -0.63 | 4925
EMC7 (ER membrane protein complex subunit 7) | 0.7 | 8041
AMBRA1 (autophagy and beclin 1 regulator 1) | -0.74 | 5336
DOK2 (docking protein 2) | -1.82 | 6506
ZNF222 (zinc finger protein 222) | 0.4 | 6418
TASP1 (taspase 1) | -0.86 | 4987
SEC22B (SEC22 homolog B, vesicle trafficking protein) | -0.76 | 5232
NEK1 (NIMA related kinase 1) | 1.32 | 6415
MECP2 (methyl-CpG binding protein 2) | -1.95 | 5306
TMPRSS6 (transmembrane serine protease 6) | 1.4 | 5603
ZFAND1 (zinc finger AN1-type containing 1) | 0.3 | 4745
PRR36 (proline rich 36) | 0.23 | 7024
CD2AP (CD2 associated protein) | -0.17 | 6230
NLRP10 (NLR family pyrin domain containing 10) | -0.05 | 7038
PARP4 (poly(ADP-ribose) polymerase family member 4) | -0.23 | 5306
CCDC13 (coiled-coil domain containing 13) | 0.49 | 5766
OR4L1 (olfactory receptor family 4 subfamily L member 1) | 1.2 | 6800
MYO1E (myosin IE) | -2.13 (active) | 7284
SLC6A13 | -1.58 | 5694
